PubChem BioAssay AID1347076 (National Center for Advancing Translational Sciences (NCATS), 2019)
Several values for one entry are separate records, joined by “and”; a condition that tells them apart may be missing. Equal values may be shown once. The campaign covered roughly 400,000 compounds. About 13,000 (3.2%) were called active. Inconclusive results, whose numbers are uncertain, are shown with a selection of clear calls. Calls follow the shape of the dose curve; as a rule, active = well fitted cell-killing curve with a large enough effect; inconclusive = small, poorly fitted or top-dose-only effect, or effect the other way; inactive = flat fitted curve, though single readings scatter. Where the call is inconclusive, the potency comes from a doubtful curve fit.

experiment: qHTS assay for MDR1-selective chemotherapeutics: Primary screen using the drug-selected MDR subline cells KB-V1; settings: KB-V1 MDR cells viability, CellTiter-Glo, 72 h; activity change, negative = cytotoxicity: at 46.1 µM (top of the series); also: nearly all actives have a fitted effect of over 60% in size
Procedure, shortened: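 Compound-treated KB-V1 multidrug-resistant cells, 72 h, 37 degrees C; viability by CellTiter-Glo. Fitted qHTS curves give the values.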
% is scaled to controls: 0 for no effect and ±100 for the full control effect; potency is read from the fitted curve at half-maximal effect.

**Q.** With `N#CC1(Nc2ccc3c4c(cccc24)CC3)CCCCC1` as the molecule, how does the Potency read?
**A.** inactive

**Q.** Which Potency does the source give for `O=C(N/N=C/c1ccccn1)c1cc(-c2ccccc2Cl)n[nH]1` here?
**A.** inactive

**Q.** Which Potency does the source give for `COc1ccc(OCc2ccc(-c3nc(C#N)c(N4CCC(C(N)=O)CC4)o3)o2)cc1` here?
**A.** inactive

**Q.** For `CN(CC(=O)Nc1ccccc1Br)C(=O)CCSc1ccc(F)cc1`, which Potency is on record?
**A.** inconclusive: 14.6 µM [cytotoxic, partial curve]

**Q.** Which Potency does the source give for `CCOc1cc(N2CCOCC2)c(OCC)cc1NS(=O)(=O)c1ccc(Cl)s1` here?
**A.** active: 5.17 µM

**Q.** For `O=C1CCC(=O)O1`, which Potency is on record?
**A.** inactive

**Q.** With `O=c1c(Sc2ccccc2)c(C(F)(F)F)[nH]n1-c1ccccc1` as the molecule, how does the Potency read?
**A.** inconclusive: 17.8 µM [cytotoxic, single point]

**Q.** Which Potency does the source give for `CCNc1cccc(S(=O)(=O)N2CCCN(S(=O)(=O)c3ccc4c(c3)OCCO4)CC2)c1` here?
**A.** inactive

**Q.** Which Potency does the source give for `CC(C)(C)c1ccc(OCc2ccc(C(=O)Nc3cccnc3)o2)cc1` here?
**A.** inconclusive: 29.1 µM [cytotoxic, single point]

**Q.** For `O=[N+]([O-])c1ccccc1/C=C/C=N/n1c(-c2cc(-c3ccccc3)n[nH]2)n[nH]c1=S`, which Potency is on record?
**A.** inactive

**Q.** Which Potency does the source give for `CCN(CC)CCNC(=O)c1ccc(NC(=O)c2ccc(S(=O)(=O)N3CCCCCC3)cc2)cc1` here?
**A.** inconclusive: 6.51 µM [rising, full curve, poor fit]

**Q.** With `O=C(Cn1cc(S(=O)(=O)c2ccc(Cl)cc2)c(=O)c2ccccc21)Nc1ccc2c(c1)OCO2` as the molecule, how does the Potency read?
**A.** inactive

**Q.** For `CCOc1ccccc1-n1c(SCC(N)=O)nc2ccccc2c1=O`, which Potency is on record?
**A.** inconclusive: 13 µM [cytotoxic, partial curve]

**Q.** With `Cc1ccc(C)c(NC(=O)CSc2ncc3c(n2)-c2ccccc2N(Cc2ccccc2C)S3(=O)=O)c1` as the molecule, how does the Potency read?
**A.** inactive

**Q.** With `Cc1ccc(NS(=O)(=O)c2ccc(NC(=O)C3CC3)cc2)cc1C` as the molecule, how does the Potency read?
**A.** inactive

**Q.** With `OC(CNc1ccnc2cc(Cl)ccc12)CNC1CCCCC1` (stereo unspecified) as the molecule, how does the Potency read?
**A.** inconclusive: 25.9 µM [cytotoxic, single point]

**Q.** For `COc1ccc(S(=O)(=O)N2CCCCCC2)cc1C(=O)NCc1ccccc1Cl`, which Potency is on record?
**A.** inconclusive: 4.61 µM [cytotoxic, partial curve]

**Q.** Which Potency does the source give for `Fc1ccc([C@@H]2Nc3ccccc3[C@@H]3C=CC[C@@H]32)cc1` here?
**A.** inactive

**Q.** With `NC(=O)COC(=O)c1ccccc1OCc1ccccc1Cl` as the molecule, how does the Potency read?
**A.** inconclusive: 29.1 µM [rising, single point]

**Q.** With `CCOc1ccc(/C=C/C(=O)c2cc(Br)ccc(=O)c2O)cc1` as the molecule, how does the Potency read?
**A.** active: 10.3 µM

**Q.** For `CCc1ccc(NS(=O)(=O)c2ccc(OC)c3ncccc23)cc1`, which Potency is on record?
**A.** inactive

**Q.** For `Cc1ncoc1C(=O)NCc1ccccc1Cl`, which Potency is on record?
**A.** inconclusive: 16.4 µM [cytotoxic, partial curve, poor fit]

**Q.** For `COc1ccc(C)cc1NS(=O)(=O)c1ccc(-c2cnc(C3CC3)o2)cc1`, which Potency is on record?
**A.** inconclusive: 517 nM [cytotoxic, full curve, poor fit] and inconclusive: 259 nM [cytotoxic, full curve, poor fit]

**Q.** For `Cc1ccc(C)c(Nc2ncnc3c2cnn3-c2ccc(F)cc2)c1`, which Potency is on record?
**A.** inactive

**Q.** With `CCOC(=O)C1CCN(C(=O)CC2(CC(=O)O)CCCC2)CC1` as the molecule, how does the Potency read?
**A.** inactive

**Q.** With `N#Cc1c(N)nc2c(c1N)CC(COc1ccccc1)O2` (stereo unspecified) as the molecule, how does the Potency read?
**A.** inconclusive: 32.6 µM [rising, single point]

**Q.** With `CC(C)(C)c1ccc(NC(=O)COC(=O)c2ccc(NS(=O)(=O)c3ccc(F)c(F)c3)cc2)cc1` as the molecule, how does the activity change, negative = cytotoxicity read?
**A.** inconclusive: -25.1%

**Q.** Which Potency does the source give for `FCCCOc1ccc(CN2CCN(c3ccccc3F)CC2)cc1` here?
**A.** inconclusive: 29.1 µM [cytotoxic, single point]

**Q.** Which Potency does the source give for `CCOC(=O)Nc1ccc2nc3n(c(=O)c2c1)CCCCC3` here?
**A.** inconclusive: 25.9 µM [cytotoxic, single point]

**Q.** With `CCc1cc(=O)oc2cc3occ(-c4ccc(OC)c(F)c4)c3cc12` as the molecule, how does the Potency read?
**A.** active: 1.64 µM

**Q.** With `CNC(=S)N/N=C(\C)c1ccc(C)c(C)c1` as the molecule, how does the Potency read?
**A.** inconclusive: 18.4 µM [cytotoxic, single point]

**Q.** For `O=C(N1CCOCC1)N1CCN(S(=O)(=O)c2ccccc2)C1`, which Potency is on record?
**A.** inconclusive: 29.1 µM [rising, single point]

**Q.** With `O=C(c1cc(-c2ccccc2Cl)nc2ccccc12)N1CCN(c2ccccc2O)CC1` as the molecule, how does the Potency read?
**A.** inconclusive: 6.51 µM [cytotoxic, partial curve]

**Q.** For `CCOc1cc(N2CCOCC2)c(OCC)cc1NC(=O)c1cccc(S(=O)(=O)N2CCOCC2)c1`, which Potency is on record?
**A.** active: 14.6 µM

**Q.** For `CC[n+]1c(C)sc2cc(C)ccc21`, which Potency is on record?
**A.** inconclusive: 20.6 µM [rising, single point]

**Q.** Which Potency does the source give for `CC(C)CCN1CCN(CCCn2cccn2)CC1CCO` (stereo unspecified) here?
**A.** inconclusive: 29.1 µM [rising, single point]

**Q.** With `O=C(NC1CCCCC1)C(c1ccc(F)cc1)N(Cc1ccco1)C(=O)CN1C(=O)c2ccccc2S1(=O)=O` (stereo unspecified) as the molecule, how does the Potency read?
**A.** inconclusive: 16.4 µM [cytotoxic, single point]

**Q.** For `COc1ccc(-c2cc(C3CCN(c4ccc(C(C)=O)cc4[N+](=O)[O-])CC3)[nH]n2)cc1`, which Potency is on record?
**A.** active: 14.6 µM

**Q.** Which Potency does the source give for `COc1ccc(CCN2C(=O)N(c3ccc(F)cc3)C(=O)C2CC(=O)Nc2ccccc2)cc1OC` (stereo unspecified) here?
**A.** inconclusive: 2.59 µM [rising, full curve, poor fit]

**Q.** For `Cc1nc([N+](=O)[O-])c(Sc2nc3ccccc3n2C)n1Cc1ccccc1`, which Potency is on record?
**A.** inactive

**Q.** With `CCOC(=O)c1c(NC(=O)CC2Nc3cc(C)c(C)cc3NC2=O)sc(C)c1C` (stereo unspecified) as the molecule, how does the Potency read?
**A.** inactive

**Q.** Which Potency does the source give for `CCCn1c(N)c(N(CCOC)C(=O)c2ccc(S(=O)(=O)N3CCOCC3)cc2)c(=O)[nH]c1=O` here?
**A.** inactive

**Q.** With `CN1CCN(S(=O)(=O)c2ccc(N3CCN(S(=O)(=O)/C=C/c4ccccc4)CC3)nc2)CC1` as the molecule, how does the Potency read?
**A.** inactive

**Q.** For `Cc1onc(-c2ccccc2)c1C(=O)NC(=S)NNC(=O)c1cc(-c2ccc(F)cc2)n[nH]1`, which Potency is on record?
**A.** inconclusive: 5.17 µM [cytotoxic, partial curve, poor fit]

**Q.** For `COc1ccc(CNC(=S)Nc2ccc(-c3ccccc3)cc2)cc1`, which Potency is on record?
**A.** inconclusive: 29.1 µM [cytotoxic, single point]

**Q.** With `CN1CCN(S(=O)(=O)c2ccc(Br)c3nsnc23)CC1` as the molecule, how does the Potency read?
**A.** inconclusive: 16.4 µM [cytotoxic, single point]
